Among the data in PubChem BioAssay AID256 (DTP/NCI, 2004) are survivor count and T/C values, retold here.

This assay has as its system CD2F1 mice, L1210 leukemia ip, survival T/C. As to the kind of experiment: NCI In Vivo Anticancer Drug Screen. Data for tumor model L1210 Leukemia (intraperitoneal) in CD2F1 (CDF1) mice. The following applies: higher T/C = longer survival. Put shortly:
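Vehicle-treated tumor-bearing mice served as controls (C) for compound-treated mice (T). Reported figure is T divided by C.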

Where [1] appears, read: T/C endpoint: mean survival time, dose: 400.0 mg/kg/injection, schedule: Q04DX003 (ip), vehicle: saline with Tween-80.
[2] abbreviates: T/C endpoint: mean survival time, dose: 400.0 mg/kg/injection, schedule: Q01DX001 (ip), vehicle: saline with Tween-80.
[3] abbreviates: T/C endpoint: mean survival time, dose: 200.0 mg/kg/injection, schedule: Q01DX009 (ip), vehicle: saline.
Setting [4] is: T/C endpoint: mean survival time, dose: 400.0 mg/kg/injection, schedule: Q04DX003 (ip), vehicle: saline.
[5] abbreviates: T/C endpoint: mean survival time, dose: 50.0 mg/kg/injection, schedule: Q01DX009 (ip), vehicle: saline with Tween-80.
Where [6] appears, read: T/C endpoint: mean survival time, dose: 100.0 mg/kg/injection, schedule: Q01DX001 (ip), vehicle: saline with Tween-80.

The list does not hold the whole screen: it is rich in T/C values a quarter to a half above the control, in often repeated tests (any T/C) and in doses without a T/C. Other doses and runs of a compound stand elsewhere. T/C: endpoint of the treated group in % of that of the vehicle group. Some entries give survivors of the animals treated and no T/C: the source holds a T/C of zero for them, seemingly a mark for toxic or unscored doses. Some doses without a T/C left all or most animals alive at the check, yet need not have been tolerated: the source hardly ever lists a survival T/C far under the control, and the zero likely stands for such cases as well. Counts of survivors are from the toxicity check (mostly the fifth day) where no day follows; animals may have died later. Schedule codes are those of the source, taken here to give the interval after Q, in days (D) or hours (H), and the number of doses after X. Some doses were run more than once; the results are listed from low to high. Where survival is the endpoint, this PubChem deposit counts one and a half times the control or more as active, and values a quarter to a half above the control carry no call in these data; other NCI protocols may use other cut-offs. Marks such as (2×) stand for listed records that agree.

In the case of `CC(=O)Nc1cc(NC(C)=O)cc(N(CCCl)CCCl)c1`, the survivor count is 5 of 6 (T/C endpoint: mean survival time, dose: 100.0 mg/kg/injection, schedule: Q01DX005 (ip), vehicle: water); 0 of 6 (T/C endpoint: mean survival time, dose: 200.0 mg/kg/injection, schedule: Q01DX005 (ip), vehicle: water); 0 of 6 (T/C endpoint: mean survival time, dose: 400.0 mg/kg/injection, schedule: Q01DX005 (ip), vehicle: water).
With `N#CC(=C1C=CC(=NO)C=C1)c1ccccc1`, under setting [1], the survivor count is recorded as 5 of 6.
In the case of `Nc1ccc(/C=C/C(=O)Nc2ccc(S(=O)(=O)F)cc2)cc1`, the survivor count under setting [2] is on record as 6 of 6.
`Nc1ccn([C@@H](C=O)O[C@@H](C=O)CO)c(=O)n1`: the T/C (T/C endpoint: mean survival time, dose: 50.0 mg/kg/injection, schedule: Q01DX009 (ip), vehicle: saline) is 141 % of control and the T/C (T/C endpoint: mean survival time, dose: 280.0 mg/kg/injection, schedule: Q01DX001 (ip), vehicle: saline) was 137 % of control. Besides, the survivor count was 2 of 6 under setting [3] and 2 of 7 (T/C endpoint: mean survival time, dose: 560.0 mg/kg/injection, schedule: Q01DX001 (ip), vehicle: saline).
`NCc1cccn1OCc1ccccc1`: the survivor count (T/C endpoint: mean survival time, dose: 200.0 mg/kg/injection, schedule: Q01DX009 (ip), vehicle: Klucel (hydroxypropylcellulose) (HPC)) is recorded as 0 of 6.
Regarding `CC12CCCC1=[N+]1CCCCC1CC2=O` (stereo unspecified), under setting [4], the survivor count was 0 of 6.
`CC[NH-].CC[NH-].[Cl][Pt+2][Cl]`: the survivor count (T/C endpoint: mean survival time, dose: 20.0 mg/kg/injection, schedule: Q04DX003 (ip), vehicle: water) is listed as 10 of 10 and the survivor count (T/C endpoint: mean survival time, dose: 40.0 mg/kg/injection, schedule: Q04DX003 (ip), vehicle: water) is listed as 10 of 10.
For the compound `Cc1cc2c(C)c3cc(C)c(N)cc3nc2cc1N`, the survivor count reads like this: (T/C endpoint: mean survival time, dose: 150.0 mg/kg/injection, schedule: Q01DX001 (ip), vehicle: saline) 2 of 6; (T/C endpoint: mean survival time, dose: 300.0 mg/kg/injection, schedule: Q01DX001 (ip), vehicle: saline) 0 of 6.
`CCOC(=O)/C=C/C(=O)[O-].CCOC(=O)/C=C/C(=O)[O-].NC1CCCCC1N.[Pt+4]`: the T/C reads like this: (T/C endpoint: median survival time, dose: 50.0 mg/kg/injection, schedule: Q04DX003 (ip), vehicle: saline with Tween-80) 127 and 138 % of control; (T/C endpoint: median survival time, dose: 100.0 mg/kg/injection, schedule: Q04DX003 (ip), vehicle: saline with Tween-80) 137 % of control.
For `COc1cc2c(cc1O)NC(OC)C1CC(O)CN1C2=O` (stereo unspecified), under “T/C endpoint: median survival time, dose: 12.8 mg/kg/injection, schedule: Q01DX005 (ip), vehicle: DMSO”, the T/C was 134 % of control. For the same compound, under “T/C endpoint: median survival time, dose: 19.2 mg/kg/injection, schedule: Q01DX005 (ip), vehicle: DMSO”, the survivor count is 1 of 6.
With `CC1(C)N=C(N)N=C(N)N1c1ccccc1Cl`, the survivor count reads like this: (T/C endpoint: mean survival time, dose: 100.0 mg/kg/injection, schedule: Q04DX002 (ip), vehicle: saline) 0 of 3; (T/C endpoint: mean survival time, dose: 200.0 mg/kg/injection, schedule: Q04DX002 (ip), vehicle: saline) 0 of 3.
For the compound `C/C=C/C=C1/OC(C)=C(C(C)=O)C1=O`, the survivor count runs as follows: (T/C endpoint: mean survival time, dose: 200.0 mg/kg/injection, schedule: Q01DX009 (ip), vehicle: saline with Tween-80) 0 of 10; (T/C endpoint: mean survival time, dose: 400.0 mg/kg/injection, schedule: Q01DX009 (ip), vehicle: saline with Tween-80) 0 of 6 and 1 of 10.
For the compound `COc1cc2c(c(OC)c1O)-c1ccc(OC)c(=O)cc1[C@@H](NC(=O)C(F)(F)F)CC2`, the T/C is 137 % of control (T/C endpoint: median survival time, dose: 1.25 mg/kg/injection, schedule: Q01DX005 (ip), vehicle: Klucel (hydroxypropylcellulose) (HPC)); 147 % of control (T/C endpoint: median survival time, dose: 1.8 mg/kg/injection, schedule: Q01DX005 (ip), vehicle: Klucel (hydroxypropylcellulose) (HPC)); 131 % of control (T/C endpoint: median survival time, dose: 2.5 mg/kg/injection, schedule: Q01DX009 (ip), vehicle: Klucel (hydroxypropylcellulose) (HPC)); 135 % of control (T/C endpoint: median survival time, dose: 5.0 mg/kg/injection, schedule: Q01DX005 (ip), vehicle: Klucel (hydroxypropylcellulose) (HPC)); 131 % of control (T/C endpoint: median survival time, dose: 5.0 mg/kg/injection, schedule: Q01DX009 (ip), vehicle: Klucel (hydroxypropylcellulose) (HPC)). Also, the survivor count is recorded as 4 of 6 (T/C endpoint: median survival time, dose: 10.0 mg/kg/injection, schedule: Q01DX009 (ip), vehicle: Klucel (hydroxypropylcellulose) (HPC)) and 3 of 6 (T/C endpoint: median survival time, dose: 20.0 mg/kg/injection, schedule: Q01DX005 (ip), vehicle: Klucel (hydroxypropylcellulose) (HPC)).
As for `Clc1ncnc2nc[nH]c12`, the T/C runs as follows: (T/C endpoint: mean survival time, dose: 7.5 mg/kg/injection, schedule: Q01DX009 (ip), vehicle: saline) 94, 98, 100, 106 % of control; (T/C endpoint: mean survival time, dose: 15.0 mg/kg/injection, schedule: Q01DX009 (ip), vehicle: saline) 95, 100 (2×), 101 % of control; (T/C endpoint: mean survival time, dose: 30.0 mg/kg/injection, schedule: Q01DX009 (ip), vehicle: saline) 100, 106, 109, 112 % of control; (T/C endpoint: mean survival time, dose: 60.0 mg/kg/injection, schedule: Q01DX009 (ip), vehicle: saline) 111, 117, 118, 123 % of control.
Consider `COc1cc(Cl)ccc1NC(=O)Nc1cccc(C(=O)O)c1`, for which, under setting [5], the survivor count is reported as 3 of 3.
With `N/C=N/O`, the T/C runs as follows: (T/C endpoint: mean survival time, dose: 150.0 mg/kg/injection, schedule: Q01DX009 (ip), vehicle: saline) 126 % of control; under setting [3], 133 % of control. Moreover, for the setting “T/C endpoint: mean survival time, dose: 600.0 mg/kg/injection, schedule: Q01DX009 (ip), vehicle: saline”, the survivor count is recorded as 0 of 6.
In the case of `Cc1ccncc1C1CCCN1C` (stereo unspecified), the survivor count by setting is: (T/C endpoint: mean survival time, dose: 100.0 mg/kg/injection, schedule: Q04DX003 (ip), vehicle: saline) 3 of 3; (T/C endpoint: mean survival time, dose: 200.0 mg/kg/injection, schedule: Q04DX003 (ip), vehicle: saline) 1 of 3; under setting [4], 0 of 3.
As to `CCc1c(O)c2c(c(O)c1C(C)=O)C(=O)c1c(cc(O)c(C(=O)O)c1C(=O)O)C2=O`, the survivor count under setting [3] is given as 0 of 6.
`COc1cccc2c1C(=O)c1c(O)c3c(c(O)c1C2=O)C[C@@](O)(C(=O)COC(C)=O)C[C@@H]3OC1CC(N)C(O)C(C)O1` (stereo partly specified): the T/C by setting is: (T/C endpoint: mean survival time, dose: 0.75 mg/kg/injection, schedule: Q01DX009 (ip), vehicle: saline) 132 % of control; (T/C endpoint: mean survival time, dose: 0.75 mg/kg/injection, schedule: Q04DX003 (ip), vehicle: saline with Tween-80) 133 % of control; (T/C endpoint: mean survival time, dose: 1.0 mg/kg/injection, schedule: Q04DX003 (ip), vehicle: saline sonified) 146 % of control; (T/C endpoint: mean survival time, dose: 1.5 mg/kg/injection, schedule: Q01DX009 (ip), vehicle: saline) 147 % of control; (T/C endpoint: mean survival time, dose: 1.5 mg/kg/injection, schedule: Q04DX003 (ip), vehicle: saline sonified) 133 % of control; (T/C endpoint: mean survival time, dose: 1.5 mg/kg/injection, schedule: Q04DX003 (ip), vehicle: saline with Tween-80) 148 % of control. For the same compound, where the note is “T/C endpoint: mean survival time, dose: 2.25 mg/kg/injection, schedule: Q04DX003 (ip), vehicle: saline sonified”, the T/C is 142 % of control.
For `COc1ccc2nc3c(Cl)cccc3c(Cl)c2c1`, the survivor count is 6 of 6 under setting [6] and 6 of 6 under setting [2].
As to `CC(=Nc1ccccc1)C1=C(O)C(Cc2cccc(F)c2)NC1=O` (stereo unspecified), the T/C (T/C endpoint: mean survival time, dose: 200.0 mg/kg/injection, schedule: Q04DX002 (ip), vehicle: saline with Tween-80) was 125 % of control.
For `Cc1ccc(NC(=O)C2CCC(C)(C(=O)O)C2(C)C)cc1` (stereo unspecified), under setting [1], the survivor count is reported as 3 of 6.
As for `O=C[CH2][Hg][Cl]`, the survivor count by setting is: (T/C endpoint: mean survival time, dose: 3.13 mg/kg/injection, schedule: Q01DX009 (ip), vehicle: saline with Tween-80) 3 of 3; (T/C endpoint: mean survival time, dose: 6.25 mg/kg/injection, schedule: Q01DX009 (ip), vehicle: saline with Tween-80) 0 of 3; (T/C endpoint: mean survival time, dose: 12.5 mg/kg/injection, schedule: Q01DX009 (ip), vehicle: saline with Tween-80) 0 of 3; (T/C endpoint: mean survival time, dose: 25.0 mg/kg/injection, schedule: Q01DX009 (ip), vehicle: saline with Tween-80) 0 of 3; under setting [5], 0 of 3.
As for `NNC(=O)CCCCCCCCCCCCCCO`, the survivor count under setting [6] was 3 of 3.
Take `COc1cccc2c1C(=O)c1c(O)c3c(c(O)c1C2=O)C[C@@](O)(C(=O)CO)C[C@@H]3OC1CC(N)CC(C)O1` (stereo partly specified): for the setting “T/C endpoint: median survival time, dose: 0.37 mg/kg/injection, schedule: Q01DX009 (ip), vehicle: water”, the T/C was 142 % of control. For the setting “T/C endpoint: median survival time, dose: 6.0 mg/kg/injection, schedule: Q01DX009 (ip), vehicle: water”, the survivor count is listed as 5 of 6.
